# PubChem BioAssay AID720505, Drosophila RNAi Screening Center, 2013
# Aim: 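Knock-downs that reduce calcium influx once internal stores are emptied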 (primary screen)
# Cells: Drosophila S2R+ cells
# Reagent: long dsRNA against Drosophila genes
# Challenge: thapsigargin (2 µM) in calcium-free buffer to empty internal stores, then 2 mM calcium added back
# Measurement: 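Stores emptied by 2 µM thapsigargin without calcium, then 2 mM calcium re-added; fluo-4 fluorescence followed by FLIPR in 384-well plates, per-well averaged endpoint, raw; two screen passes, some wells retested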
# Reading the numbers: calcium signal and retest calcium signal: higher = more calcium entry after store depletion
# Active means: 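About 1500 genes called as lowering calcium entry, by varying amounts, judged against per-plate control wells with STIM1 as positive and Rho1 as negative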
# Calls: active = called as lowering calcium entry; inactive = not called
# In all, the deposit lists about 20,000 reagents; below is an unselected part of those that have a named target and a result. Over the whole deposit, about 2,100 (10%) are marked active. 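Raw plate signals without normalisation; calls rest on control-based scores that were not deposited; replicate 2 separates called from uncalled poorly.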 Entries without a mark were called inactive. A plus sign joins genes that one reagent is predicted to hit. Not given: the amount of reagent, the time to read-out.
Gene,amplicon,"calcium signal, replicate 1","calcium signal, replicate 2","retest calcium signal, replicate 1","retest calcium signal, replicate 2"
CG33459,DRSC05615,57 (active),82.7,,
Tim23,DRSC21240,111,132,,
CG10589,DRSC11629,100,157,,
Osi8,DRSC12277,107,168,,
CG6283,DRSC16009,138,137,,
robls54B,DRSC05660,159,106,,
CG32187,DRSC10521,114,126,,
CG30105,DRSC05668,87.4,104,,
CG15876,DRSC08484,97.9,87.8,,
lncRNA:CR43491,DRSC19184,103,102,,
Ten-m,DRSC11664,78.5,151,,
Ten-m,DRSC11882,95.2,110,,
CR10102,DRSC05963,83.3,103,,
INPP5E,DRSC09723,106,78,,
OdsH,DRSC20263,87.3,92.9,,
Shrm,DRSC06437,115,152,,
Shrm,DRSC06438,89.4,96.8,,
Shrm,DRSC07221,199,134,,
Shrm,DRSC23067,84.5,60.1,,
CG17191,DRSC15185,149,95.9,,
Cog3,DRSC00585,98.5,185,,
CG14883,DRSC15007,89.3,148,,
Or85d,DRSC16767,110,122,,
Fen1,DRSC07415,96.9,102,,
Targ1,DRSC11616,111,112,,
CG10068,DRSC12508,106,101,,
CG12824,DRSC06173,108,107,,
CG3191,DRSC18530,121,170,109,82.6
rk,DRSC03602,111,166,,
Dyrk3,DRSC21055,79.1,131,,
CG15534,DRSC15070,126,140,,
CG43193 (retired record),DRSC20426,104,79.6,,
CG43066,DRSC06927,169,233,106,96.5
CG5506,DRSC10511,187,193,,
Pus1,DRSC15548,238,210,,
lncRNA:CR32660,DRSC22965,109,120,,
VhaAC45,DRSC07058,116,88.9,,
CG9356,DRSC16476,135,96.5,,
CG33160,DRSC08197,75.2,108,,
Obsc,DRSC04301,171,154,,
Obsc,DRSC04302,133,148,,
Obsc,DRSC04303,151,158,,
Obsc,DRSC04430,118,127,,
Obsc,DRSC22422,93.2,161,,
Ranbp16 + Lcch3,DRSC20257,155,118,,
ssp,DRSC10252,101,87.3,,
sn,DRSC18834,154,151,,
Ilp2,DRSC10968,105,88.1,,
l(2)k09913,DRSC04699,160,126,,
Loxl2,DRSC04469,153,118,,
CG17321,DRSC02598,82.5,107,,
CG9782,DRSC19145,108,123,,
CG9782,DRSC20209,105,98.7,,
D1,DRSC16638,146,111,,
Grasp65,DRSC10917,83.2,107,,
CG32055,DRSC10666,72.4 (active),71.4,,
Gart,DRSC03481,164,113,,
CG4332,DRSC19890,164,143,,
CG7694,DRSC16288,201,134,,
Ama,DRSC12489,122,163,,
CG6765,DRSC10706,101,89.9,,
CG14237,DRSC14731,103,104,,
CG14237,DRSC23239,103,143,,
Cyt-c-p,DRSC03310,82.5,85.8,,
CG31126,DRSC14623,239,111,,
CG11123,DRSC06040,136,158,,
Prp40,DRSC00612,120,259,,
uex,DRSC20784,99.8,8536,,
uex,DRSC20786,95.3,12864,,
CG4830,DRSC15657,118,84.6,,
CG34106,DRSC01578,148,88.2,,
rdo,DRSC02452,79.2,109,,
Sec8,DRSC12300,114,75.8,,
CG2187,DRSC15425,90,121,,
Naam,DRSC16252,148,159,,
CG43271,DRSC01614,185,117,6021,77.3
CG43271,DRSC21741,158,112,,
CG13044,DRSC09925,136,157,,
CG13339,DRSC06373,134,181,,
tfc,DRSC08626,96.4,135,,
tfc,DRSC21704,124,69.1,,
wun2,DRSC07566,134,203,,
CG46298,DRSC06222,151,184,,

Active calls (from the list above):
Gene,amplicon,"calcium signal, replicate 1","calcium signal, replicate 2","retest calcium signal, replicate 1","retest calcium signal, replicate 2"
CG33459,DRSC05615,57 (active),82.7,,
CG32055,DRSC10666,72.4 (active),71.4,,
